From PMC4703885
These are yes or no findings as the source states them, for the method shown. In cells and extracts the contact can be indirect. Some results given as binding are weak or reduced against the parent protein; the word gives no strength. For some of these results: Sequences can lack the tags named with a protein.

Chains of the proteins cited; added tags and fusions are not shown.
UniProt Q14974: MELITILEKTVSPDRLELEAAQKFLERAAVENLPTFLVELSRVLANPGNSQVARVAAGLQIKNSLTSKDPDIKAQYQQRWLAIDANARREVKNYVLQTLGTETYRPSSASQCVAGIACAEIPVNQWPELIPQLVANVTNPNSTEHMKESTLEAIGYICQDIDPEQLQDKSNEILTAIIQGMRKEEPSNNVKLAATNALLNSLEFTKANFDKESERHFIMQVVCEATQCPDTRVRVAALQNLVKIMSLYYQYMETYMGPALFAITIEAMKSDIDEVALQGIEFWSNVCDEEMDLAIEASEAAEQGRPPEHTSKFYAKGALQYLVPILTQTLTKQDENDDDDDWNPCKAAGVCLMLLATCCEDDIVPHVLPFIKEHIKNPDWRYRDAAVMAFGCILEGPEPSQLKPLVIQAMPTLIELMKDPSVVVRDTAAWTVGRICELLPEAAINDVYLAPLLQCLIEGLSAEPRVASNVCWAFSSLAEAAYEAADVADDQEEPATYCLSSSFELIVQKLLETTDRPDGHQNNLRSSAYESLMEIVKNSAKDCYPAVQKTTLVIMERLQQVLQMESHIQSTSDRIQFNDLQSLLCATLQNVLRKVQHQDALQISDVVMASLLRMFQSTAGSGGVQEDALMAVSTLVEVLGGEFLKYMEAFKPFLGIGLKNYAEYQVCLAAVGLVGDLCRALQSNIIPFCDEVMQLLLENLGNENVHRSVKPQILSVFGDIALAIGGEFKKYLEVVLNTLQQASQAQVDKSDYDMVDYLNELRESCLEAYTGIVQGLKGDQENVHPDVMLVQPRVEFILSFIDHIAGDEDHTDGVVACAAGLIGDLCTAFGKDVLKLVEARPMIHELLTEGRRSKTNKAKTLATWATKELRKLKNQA

T1: EGFP-tagged RepoMan-WT (UniProt Q69YH5)
T1 sequence: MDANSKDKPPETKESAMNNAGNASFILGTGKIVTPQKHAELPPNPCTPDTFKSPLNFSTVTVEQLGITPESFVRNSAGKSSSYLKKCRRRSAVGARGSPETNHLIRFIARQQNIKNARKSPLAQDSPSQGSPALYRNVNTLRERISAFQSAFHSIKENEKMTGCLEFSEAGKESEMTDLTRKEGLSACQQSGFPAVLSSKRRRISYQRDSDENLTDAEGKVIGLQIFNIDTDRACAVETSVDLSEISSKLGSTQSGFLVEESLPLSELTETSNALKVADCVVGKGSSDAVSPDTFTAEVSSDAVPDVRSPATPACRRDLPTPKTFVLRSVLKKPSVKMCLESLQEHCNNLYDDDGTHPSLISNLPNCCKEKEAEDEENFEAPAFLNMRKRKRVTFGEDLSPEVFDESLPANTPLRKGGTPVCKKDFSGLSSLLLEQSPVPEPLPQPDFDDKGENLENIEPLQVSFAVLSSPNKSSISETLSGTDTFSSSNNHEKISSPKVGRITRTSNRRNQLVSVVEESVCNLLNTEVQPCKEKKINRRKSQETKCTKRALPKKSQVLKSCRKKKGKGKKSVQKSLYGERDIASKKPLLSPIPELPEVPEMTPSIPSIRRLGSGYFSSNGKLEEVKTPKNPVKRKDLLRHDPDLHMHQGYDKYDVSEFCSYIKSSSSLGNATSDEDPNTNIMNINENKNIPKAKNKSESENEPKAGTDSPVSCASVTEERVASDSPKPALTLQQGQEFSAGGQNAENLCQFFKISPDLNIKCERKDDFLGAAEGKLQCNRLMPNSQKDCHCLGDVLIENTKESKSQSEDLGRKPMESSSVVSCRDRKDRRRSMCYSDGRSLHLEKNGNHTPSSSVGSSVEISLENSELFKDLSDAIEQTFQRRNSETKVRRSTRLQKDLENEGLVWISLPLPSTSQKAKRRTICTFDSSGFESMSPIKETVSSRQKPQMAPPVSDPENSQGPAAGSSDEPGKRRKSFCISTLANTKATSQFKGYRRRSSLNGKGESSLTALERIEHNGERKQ


Columns and labels:
[1] = biological target: T1, EGFP-tagged RepoMan-WT; experiment: co-IP; EGFP traps of EGFP-RepoMan fusions from lysates of transfected U2OS cells: non-synchronized, Nocodazole-arrested, released, or arrested and treated with 100 uM Roscovitine; immunoblot
[2] = biological target: T1, EGFP-tagged RepoMan-WT; experiment: pull-down; EGFP traps from non-synchronized HEK293T cells washed with 1.5 M NaCl, phosphorylated in vitro with Cdk2 for different times, then added to mitotic cell lysates (HeLa in Fig. 4f); immunoblot of the pelleted traps; only the target purified
[3] = biological target: EGFP-tagged Importin β (UniProt Q14974); experiment: pull-down; EGFP-tagged Importin β with or without Cdk phosphorylation, tested for binding of RepoMan (Supplementary Fig. 6b; legend not shown)
[4] = biological target: EGFP-tagged Importin β after Cdk phosphorylation (UniProt Q14974); experiment: as above

Row | binding [1] | binding [2] | binding [3] | binding [4] | Molecule
1 | binds | binds |  |  | Importin β (endogenous) (from UniProt Q14974 1-876)
2 |  |  | binds | binds | RepoMan (endogenous) (protein, UniProt Q69YH5 1-1023) MDANSKDKPPETKESAMNNAGNASFILGTGKIVTPQKHAELPPNPCTPDTFKSPLNFSTVTVEQLGITPESFVRNSAGKSSSYLKKCRRRSAVGARGSPETNHLIRFIARQQNIKNARKSPLAQDSPSQGSPALYRNVNTLRERISAFQSAFHSIKENEKMTGCLEFSEAGKESEMTDLTRKEGLSACQQSGFPAVLSSKRRRISYQRDSDENLTDAEGKVIGLQIFNIDTDRACAVETSVDLSEISSKLGSTQSGFLVEESLPLSELTETSNALKVADCVVGKGSSDAVSPDTFTAEVSSDAVPDVRSPATPACRRDLPTPKTFVLRSVLKKPSVKMCLESLQEHCNNLYDDDGTHPSLISNLPNCCKEKEAEDEENFEAPAFLNMRKRKRVTFGEDLSPEVFDESLPANTPLRKGGTPVCKKDFSGLSSLLLEQSPVPEPLPQPDFDDKGENLENIEPLQVSFAVLSSPNKSSISETLSGTDTFSSSNNHEKISSPKVGRITRTSNRRNQLVSVVEESVCNLLNTEVQPCKEKKINRRKSQETKCTKRALPKKSQVLKSCRKKKGKGKKSVQKSLYGERDIASKKPLLSPIPELPEVPEMTPSIPSIRRLGSGYFSSNGKLEEVKTPKNPVKRKDLLRHDPDLHMHQGYDKYDVSEFCSYIKSSSSLGNATSDEDPNTNIMNINENKNIPKAKNKSESENEPKAGTDSPVSCASVTEERVASDSPKPALTLQQGQEFSAGGQNAENLCQFFKISPDLNIKCERKDDFLGAAEGKLQCNRLMPNSQKDCHCLGDVLIENTKESKSQSEDLGRKPMESSSVVSCRDRKDRRRSMCYSDGRSLHLEKNGNHTPSSSVGSSVEISLENSELFKDLSDAIEQTFQRRNSETKVRRSTRLQKDLENEGLVWISLPLPSTSQKAKRRTICTFDSSGFESMSPIKETVSSRQKPQMAPPVSDPENSQGPAAGSSDEPGKRRKSFCISTLANTKATSQFKGYRRRSSLNGKGESSLTALERIEHNGERKQ
